# Data from the supplement of paper PMC8728848.
# Some of the results follow.
# B1: SspB A3vp1 (Streptococcus gordonii), Q54186 (protein)
# chain: MTNEADYQAKLAAYQTELARVQKANADAKATYEKAVEDNKAKNAAIKAENEEIKQRNAVAKTDYEAKLAKYEADLAKYKKEFAAYTAALAEAESKKKQDGYLSEPRSQSLNFKSEPNAIRTIDSSVHQYGQQELDALVKSWGISPTNPDRKKSRAYSYFNAINSNNTYAKLVLEKDKPVDVTYTGLKNSSFNGKKISKVVYTYTLKETGFNDGTKMTMFASSDPTVTAWYNDYFTSTNINVKVKFYDEEGQLMNLTGGLVNFSSLNRGNGSGAIDKDAIESVRNFNGRYIPISGSSIKIHENNSAYADSSNAEKSLGARWNTSEWDTTSSPNNWYGAIVGEITQSEISFNMASSKSGNIWFAFNSNINAIGVPTKPVAPTAPTQPMYETEKPLEPAPVAPSYENEPTPPVKTPDQPEPSKPAAALEHHHHHH
# Assays:
# [1] = target: Neu5Gc(a2-8)Neu5Gc(a2-6)Gal(b1-4)GlcNAc; assay: glycan array binding signal (z-score within array); higher = stronger binding; conditions: glycan notation: IUPAC condensed, linker removed
# How it was run: (§1)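 Negative Z-scores can be read as non-binding. The Z-score is calculated within each array and then averaged across arrays of one protein sequence at different concentrations or buffers and across linkers. Arrays, 3228 in all, were curated from the Consortium for Functional Glycomics database and kept only where the protein sequence was available.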
# [2] = target: Neu5Gc(b2-6)Gal(b1-4)GlcNAc; assay: as above; conditions: glycan notation: IUPAC condensed, linker removed
# How it was run: as §1
binder,measurement,setting,value
B1,glycan array binding signal (z-score),[1],-0.817
same,glycan array binding signal (z-score),[2],-0.252
